Data published in US20220259298A1 (KYOTO UNIVERSITY, published 2022).

The chains behind the UniProt entries cited, without tags or fusion partners. Where a name states a change or a piece, a line headed by the entry shows the natural chain unless it says otherwise. Residues count along the entry.
UniProt O75581: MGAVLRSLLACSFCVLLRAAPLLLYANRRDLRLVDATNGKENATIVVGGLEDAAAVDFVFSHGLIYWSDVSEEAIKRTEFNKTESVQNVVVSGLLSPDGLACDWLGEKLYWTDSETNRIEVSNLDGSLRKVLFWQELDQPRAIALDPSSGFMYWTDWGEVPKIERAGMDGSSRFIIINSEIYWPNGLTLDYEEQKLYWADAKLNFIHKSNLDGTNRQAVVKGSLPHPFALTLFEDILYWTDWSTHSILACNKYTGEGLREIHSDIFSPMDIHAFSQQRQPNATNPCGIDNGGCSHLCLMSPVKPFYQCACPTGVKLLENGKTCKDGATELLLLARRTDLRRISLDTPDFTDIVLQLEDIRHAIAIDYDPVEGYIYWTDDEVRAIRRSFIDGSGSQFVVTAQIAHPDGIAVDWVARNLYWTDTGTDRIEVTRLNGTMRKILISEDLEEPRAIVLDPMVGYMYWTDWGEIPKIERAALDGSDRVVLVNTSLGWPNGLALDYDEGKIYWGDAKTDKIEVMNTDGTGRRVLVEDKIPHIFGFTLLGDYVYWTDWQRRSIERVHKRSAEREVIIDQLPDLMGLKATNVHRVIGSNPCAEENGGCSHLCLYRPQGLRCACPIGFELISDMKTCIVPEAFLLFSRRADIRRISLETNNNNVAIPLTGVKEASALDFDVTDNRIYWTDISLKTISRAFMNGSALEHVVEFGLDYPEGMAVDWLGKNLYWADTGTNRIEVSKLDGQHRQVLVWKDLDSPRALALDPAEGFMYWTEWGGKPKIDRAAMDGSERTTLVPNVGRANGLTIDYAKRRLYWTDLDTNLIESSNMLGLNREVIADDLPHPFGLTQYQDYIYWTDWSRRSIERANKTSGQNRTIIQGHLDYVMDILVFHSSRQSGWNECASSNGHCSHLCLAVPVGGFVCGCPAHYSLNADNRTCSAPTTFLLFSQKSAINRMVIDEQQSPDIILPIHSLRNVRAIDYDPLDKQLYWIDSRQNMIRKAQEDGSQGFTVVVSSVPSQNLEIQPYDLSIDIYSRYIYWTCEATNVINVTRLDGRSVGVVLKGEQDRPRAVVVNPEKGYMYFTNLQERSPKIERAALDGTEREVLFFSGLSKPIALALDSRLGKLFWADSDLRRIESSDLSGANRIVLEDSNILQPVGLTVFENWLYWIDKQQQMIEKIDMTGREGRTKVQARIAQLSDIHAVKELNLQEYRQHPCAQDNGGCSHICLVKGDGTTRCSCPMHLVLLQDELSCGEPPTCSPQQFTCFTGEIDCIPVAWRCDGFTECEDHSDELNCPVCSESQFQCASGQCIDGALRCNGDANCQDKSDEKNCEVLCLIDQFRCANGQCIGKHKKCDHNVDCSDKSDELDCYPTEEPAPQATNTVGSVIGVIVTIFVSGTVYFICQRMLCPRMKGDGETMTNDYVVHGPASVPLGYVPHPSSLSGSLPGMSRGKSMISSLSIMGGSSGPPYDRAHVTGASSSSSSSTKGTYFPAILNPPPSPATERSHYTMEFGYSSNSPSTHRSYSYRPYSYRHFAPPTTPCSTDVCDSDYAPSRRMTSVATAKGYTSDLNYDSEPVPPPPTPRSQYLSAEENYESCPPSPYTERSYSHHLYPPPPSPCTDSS
UniProt Q9CQN4, residues 24-206: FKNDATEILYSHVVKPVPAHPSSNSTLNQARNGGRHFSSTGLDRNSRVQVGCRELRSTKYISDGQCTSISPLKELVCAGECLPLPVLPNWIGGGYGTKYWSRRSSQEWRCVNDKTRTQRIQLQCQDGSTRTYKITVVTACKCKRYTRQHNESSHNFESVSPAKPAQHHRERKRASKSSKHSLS

How the values were obtained:
[1] = molecular target: LRP6-E1E2 (a region of amino acid numbers 1 to 629 of human LRP6, fused to a His tag) (human) (UniProt O75581); test: co-immunoprecipitation with the anti-PA tag antibody NZ-1, SDS-PAGE with Oriole fluorescence staining
[2] = molecular target: N-terminal PA-tagged mouse USAG-1 (WISE) recombinant protein (mouse) (UniProt Q9CQN4); test: pull-down: mouse PA-USAG-1 held on Protein A sepharose by the named anti-USAG-1 antibody (or on NZ-1), then LRP6-E1E2 supernatant; SDS-PAGE, Oriole stain

Row | binding [1] | binding [2] | Substance
1 | binds | – | N-terminal PA-tagged mouse USAG-1 (WISE) recombinant protein (from UniProt Q9CQN4 24-206) (ligand)
2 | – | binds | LRP6-E1E2 (a region of amino acid numbers 1 to 629 of human LRP6, fused to a His tag) (from UniProt O75581) (receptor)

No constants are given. Whether binding was seen depends on the method and setting. In cells and extracts the contact can be indirect. A result given as binding can be weak or reduced; the word gives no strength.
